Molecular target: T1, LipA (Acinetobacter baumannii, UniProt A0ABX6CKD6)
T1 construct: gene lip; secreted LipA from plasmid-encoded lipBA, in culture supernatant
Experiment: 4-nitrophenyl myristate lipase assay; IC50 in whole culture, direct inhibition by cell-free supernatant counter-screen
Assay type: cell-based

For CNCCCC12CCC(c3ccccc31)c1ccccc12 [Maprotiline], the IC50 was 16 µM.
